Some of the results follow. Shown are side measurements of this screen, not its main read-out; they come without a call. Compounds called inactive in the main read-out are mostly missing here. Words in brackets tell the shape of the fitted curve; partial curves, single points and poor fits give uncertain potencies.
Experiment: qHTS Assay for Lipid Storage Modulators in Drosophila S3 Cells;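 as to cell number change: cells counted by Cell Tracker Red CMTPX staining in the red channel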
Settings: BODIPY lipid droplet fluorescence, 18-24 h; for cell number change: measured here: cell count max response, cells fed with added oleic acid
Procedure, shortened: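 Drosophila S3 cells got compounds at several concentrations plus oleic acid (400 uM solution). Laser-scanning cytometry with 488 nm excitation read lipid droplets at 500-530 nm and cells at 575-640 nm. Percent activity was relative to 20 uM Triacsin C.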

[1] = measured here: lipid fluorescence (Fed channel) AC50, cells fed with added oleic acid
[2] = measured here: cell number channel AC50, cells fed with added oleic acid

| Structure (SMILES) | cell number change [%] | AC50 [1] | AC50 [2] |
| --- | --- | --- | --- |
| CCCCN(Cc1cccs1)S(=O)(=O)c1ccc(-c2ccc(=O)[nH]n2)s1 | -11 | 29.1 µM [falling, single point] |  |
| COc1ccc(-c2noc(CN(C)C(=O)c3ccoc3C)n2)cc1OC | 28.3 | 4.11 µM [rising, partial curve] |  |
| COc1ccccc1C(=O)n1nc(-c2ccccc2)nc1NCc1ccco1 | 29 |  |  |
| CC1(C)CC(N2CCCC2)=CC(=[N+]2CCCC2)C1 | -38.4 | 32.6 µM [falling, single point] | 29.1 µM [falling, single point] |
| CCN1C(=O)[C@@H]2[C@H](C1=O)[C@@H]1C(=O)Nc3ccccc3C(=O)N1[C@@H]2c1ccc(OC)cc1 | -7.98 |  |  |
| c1ccc(-c2cn(-c3ccccc3)c3[n+]2CCCS3)cc1 | -29.7 |  |  |
| CCCNC(=O)CC(NS(=O)(=O)c1ccc(OC)cc1)c1ccco1 (stereo not drawn) | -0.761 | 3.26 µM [falling, single point] |  |
| CCN(CC)CCCNC(=O)c1ccccc1C | -14.8 | 0.651 µM [falling, full curve] |  |
| COC(CNC(=O)CCCn1nnnc1CN1CCOCC1)c1cccs1 (stereo not drawn) | 15.1 | 0.651 µM [rising, full curve, poor fit] |  |
| ONC(=Nc1ccccc1Cl)c1ccccc1Cl | -33.6 | 0.146 µM [falling, full curve] | 0.184 µM [falling, full curve] |
| CCOc1ccc(-c2cc(N3C(=O)Nc4ccccc4N3O)n[nH]2)cc1 | -1.32 | 20.6 µM [rising, single point] |  |
| COc1ccc(C(C)=O)c(Oc2ccc(S(=O)(=O)N3CCOCC3)cn2)c1 | -10.7 | 29.1 µM [rising, single point] |  |
| CCCCCCC(=O)N1CCC(c2nc3c(nnn3Cc3ccccc3Cl)c(=O)[nH]2)CC1 | -80 |  | 18.4 µM [falling, partial curve] |
| COC(=O)C1=C(C)NC(=O)C1(NS(=O)(=O)c1ccc(NC(C)=O)cc1)C(F)(F)F (stereo not drawn) | 15.9 | 29.1 µM [rising, single point] |  |
| COCCNc1cc(C)c(C#N)c2nc3ccccc3n12 | 39.2 |  | 10.3 µM [rising, single point] |
| COc1ccc(CN2CCNC(=O)C2CC(=O)NC2CCOCC2)cc1C (stereo not drawn) | 4.14 |  |  |
| CC(=O)c1ccc(N2CCN(C(=O)CCC(=O)c3cccs3)CC2)cc1 |  | 6.51 µM [rising, single point] |  |
| COc1ccc(NC(=O)Cn2c(CCC(=O)O)ccc2-c2ccccc2)cc1 | -17.7 | 0.13 µM [falling, full curve, poor fit] |  |
| O=C(NCCc1ccc(Cl)cc1Cl)c1cncc(Br)c1 | -23.1 |  | 0.731 µM [falling, full curve, poor fit] |
| COc1ccccc1C1SCCN1S(C)(=O)=O (stereo not drawn) | -3.8 |  |  |
| Fc1cccc(CCN2C(=S)NC[C@@H]2CC2CCCCC2)c1 | 8.28 | 2.91 µM [rising, partial curve] |  |

| Structure (SMILES) | cell number change [%] | AC50 [1] | AC50 [2] |
| --- | --- | --- | --- |
| COc1ccc(S(=O)(=O)N2CCC(C(=O)Oc3c(OC)cccc3OC)CC2)cc1OC | -15.2 | 0.103 µM [falling, full curve, poor fit] |  |
| Cc1ccc(C)c(N(C)C(=O)COc2cc(=O)n(C)c3ccccc23)c1 | -17.2 |  |  |
| COc1ccccc1CNC(=O)COc1ccc(C)cc1 | 11.3 |  |  |
| Cc1nc2ncnn2c(C)c1CCC(=O)N1CCN(Cc2ccccc2)CC1 |  |  | 0.731 µM [rising, full curve, poor fit] |
| CC1=CCC(/C=N\Nc2nnc3c(n2)[nH]c2ccccc23)CC1 (stereo not drawn) | -24.7 |  |  |
| CCOC(=O)c1c(C)[nH]c(C(=O)C(C)Cl)c1C (stereo not drawn) | 39.4 |  | 0.92 µM [rising, full curve] |
| CSc1nc2ncc(C(=O)O)c(N)n2n1 | 5.92 |  | 2.31 µM [falling, partial curve, poor fit] |
| COc1cc(C(=O)Nc2nnc(C(F)(F)F)s2)c([N+](=O)[O-])cc1OC | -47.4 | 20.6 µM [falling, single point] | 1.03 µM [falling, full curve] |
| O=[N+]([O-])c1ccc(Cl)cc1N/N=C/c1ccncc1 | -0.985 | 0.326 µM [rising, partial curve, poor fit] |  |
| CCCCN(C)C(=O)C(Cc1ccccc1)NS(=O)(=O)c1ccc2c(c1)CCC(=O)N2 (stereo not drawn) | -11.3 | 14.6 µM [falling, partial curve] |  |
| CC1(C)CC(=O)C2=C(C1)N(c1ccccc1)C(N)=C(C#N)C2c1ccsc1 (stereo not drawn) | 47.7 | 2.59 µM [rising, full curve] | 2.91 µM [rising, full curve] |
| O=C(CCC1CCCC1)N1CCN(S(=O)(=O)c2ccc(Br)cc2)CC1 | -9.81 | 8.2 µM [rising, partial curve] |  |
| O=C(Nc1cccc(S(=O)(=O)N2CCOCC2)c1)C(c1ccccc1)N1CCCCC1 (stereo not drawn) | 29.4 |  |  |
| Cc1ccc(S(=O)(=O)CCc2nc3ccccc3n2CCC#N)cc1 |  |  | 7.31 µM [falling, single point] |
| CC(=O)c1ccc([N+](=O)[O-])cc1 | 9.38 | 23.1 µM [rising, single point] | 0.517 µM [rising, partial curve] |
| Cc1[nH]c(=O)[nH]c(=O)c1S(=O)(=O)NCCc1ccc(S(N)(=O)=O)cc1 | -189 |  | 29.1 µM [falling, single point] |
| CCOc1ccc(S(=O)(=O)NCCC(=O)NCC(c2ccccc2OC)N2CCCC2)cc1 (stereo not drawn) |  |  | 6.51 µM [rising, single point] |
| COc1cc(C(=O)NCCN2CCOCC2)cc(OC)c1OC | -65.2 |  | 29.1 µM [falling, single point] |
| CC(C)CN(C(=O)COC(=O)c1ccc(Br)cc1)c1c(N)n(Cc2ccccc2)c(=O)[nH]c1=O | -39.7 | 9.2 µM [falling, partial curve] | 9.2 µM [falling, partial curve, poor fit] |
| CCOc1ccc2[nH]c(=O)c(CN(Cc3cccs3)Cc3nnnn3C(C)(C)C)cc2c1 | -33.4 | 29.1 µM [falling, single point] | 18.4 µM [falling, single point] |
| O=C(NCc1cccc(F)c1F)C1CCC(=O)N(C2CC2)C1 (stereo not drawn) |  | 4.11 µM [rising, single point] |  |

| Structure (SMILES) | cell number change [%] | AC50 [1] | AC50 [2] |
| --- | --- | --- | --- |
| Cc1ccc(C)n1NC(=O)c1ccc(Cl)cc1 | 20.7 | 0.58 µM [falling, single point] |  |
| Cc1cccc(N2CCN(C(=O)C3CCN(S(=O)(=O)c4cccc5nsnc45)CC3)CC2C)c1 (stereo not drawn) | -45.6 | 29.1 µM [rising, single point] | 29.1 µM [falling, single point] |
| O=C(C1CCCO1)N1CCN(c2ccccn2)CC1 (stereo not drawn) | -7.01 | 29.1 µM [falling, single point] |  |
| c1cncc(-c2nnc(-c3cccnc3)nn2)c1 | -12.7 | 1.64 µM [falling, partial curve] |  |
| CCN(CC)S(=O)(=O)c1ccc(NC(=O)CCN2C(=O)C3CC=CCC3C2=O)cc1 (stereo not drawn) | -20.5 | 0.58 µM [rising, full curve] |  |
| CCCSc1nc2cc(C)c(C)cc2n1CC(O)CO (stereo not drawn) |  | 0.146 µM [falling, partial curve] | 0.00517 µM [falling, full curve] |
| COc1ccc(-c2nn(-c3ccccc3)cc2C=O)cc1[N+](=O)[O-] | 21.4 |  |  |
| COC(=O)c1ccc(CSc2nnc(-c3ccncc3)o2)cc1 | -25.5 |  |  |
| COc1ccc(COc2ccc3ccc(=O)oc3c2)cc1 | 36.9 |  | 29.1 µM [rising, single point] |
| COc1ccc(S(=O)(=O)N2CCCC(C(=O)NCc3ccncc3)C2)cc1 (stereo not drawn) | -2.16 |  |  |
| CCCCn1c(SCC(=O)c2ccccc2)nc2c1c(=O)[nH]c(=O)n2C | 44.5 | 23.1 µM [rising, single point] | 29.1 µM [rising, single point] |
| Cc1cccc(C)c1NC(=O)NC1(C(=O)N2CCCCC2)CCCCC1 | 3.85 |  |  |
| Cc1ccc(S(=O)(=O)Nc2ccc(NC(=O)c3c(F)c(F)c(F)c(F)c3F)cc2)cc1 | -27.5 | 29.1 µM [falling, single point] |  |
| COc1cccc(C(=O)NNC(=O)Cc2cccs2)c1 | 22.8 | 3.66 µM [rising, full curve] |  |
| CN(C)c1nccc(N(Cc2ccccc2)Cc2ccccc2)c1C#N | 40.7 | 0.517 µM [falling, full curve] | 5.8 µM [rising, full curve, poor fit] |
| Oc1c(N=NC(=S)Nc2ccccc2F)c2ccccc2n1Cc1ccccc1Cl | -10.1 | 16.4 µM [falling, single point] |  |
| CCOc1cc(C#N)ccc1OCC(=O)N1CCc2ccccc2C1 | 11.1 |  |  |
| Cc1ccc(NC(=O)CN2CCN(CCN=CC3=C(O)CC(c4ccccc4)CC3=O)CC2)cc1 (stereo not drawn) | 13.3 |  |  |
| CCOc1cc(/C=C(/C#N)C(=O)Nc2ccc(OC)cc2)ccc1OCc1ccc(C(=O)O)cc1 | -9.68 | 18.4 µM [falling, single point] |  |
| CCOc1ccc(CC(=O)OCn2nnc3ccccc3c2=O)cc1 | -16.4 | 2.31 µM [falling, partial curve, poor fit] | 2.31 µM [falling, partial curve, poor fit] |
| Cc1ccc(CC(=S)N2CCOCC2)cc1 | -82.1 | 29.1 µM [falling, single point] | 29.1 µM [falling, single point] |

Of the compounds above, these contain two or more sulfur atoms:

| Structure (SMILES) | cell number change [%] | AC50 [1] | AC50 [2] |
| --- | --- | --- | --- |
| CCCCN(Cc1cccs1)S(=O)(=O)c1ccc(-c2ccc(=O)[nH]n2)s1 | -11 | 29.1 µM [falling, single point] |  |
| COc1ccccc1C1SCCN1S(C)(=O)=O (stereo not drawn) | -3.8 |  |  |
| Cc1[nH]c(=O)[nH]c(=O)c1S(=O)(=O)NCCc1ccc(S(N)(=O)=O)cc1 | -189 |  | 29.1 µM [falling, single point] |
| Cc1cccc(N2CCN(C(=O)C3CCN(S(=O)(=O)c4cccc5nsnc45)CC3)CC2C)c1 (stereo not drawn) | -45.6 | 29.1 µM [rising, single point] | 29.1 µM [falling, single point] |

— PubChem BioAssay AID2685 (National Center for Advancing Translational Sciences (NCATS), 2010)
